These are yes or no findings as the source states them, for the method shown. Some results given as binding are weak or reduced against the parent protein; the word gives no strength.
Legend:
[1] = biological target: signal-regulatory protein alpha (SIRPα; CD172A) (UniProt P78324); assay: ELISA, exosomes
integrin αvβ3 protein [2] = biological target: integrin αvβ3 protein (UniProt P06756); assay: ELISA, exosomes on αvβ3
integrin αvβ3 protein [3] = biological target: integrin αvβ3 protein (UniProt P06756); assay: ELISA, exosomes

Amino acid sequences for entries named in this document (tags omitted). A change or cut given only in a name is not applied to a line headed by its entry. Chains listed by the source or under a name are the forms on record and can include a tag or linker. Residues count along the entry.
UniProt P78324, residues 31-370: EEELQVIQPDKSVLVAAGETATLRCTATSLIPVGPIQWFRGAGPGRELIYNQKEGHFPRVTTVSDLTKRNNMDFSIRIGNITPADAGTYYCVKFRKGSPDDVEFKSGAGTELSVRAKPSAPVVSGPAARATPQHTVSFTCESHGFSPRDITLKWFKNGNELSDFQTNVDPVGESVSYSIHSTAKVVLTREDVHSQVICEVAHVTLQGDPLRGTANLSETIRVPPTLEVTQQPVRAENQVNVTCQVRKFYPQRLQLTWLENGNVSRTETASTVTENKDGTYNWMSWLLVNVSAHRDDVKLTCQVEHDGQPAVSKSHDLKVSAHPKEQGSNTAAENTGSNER
UniProt P06756: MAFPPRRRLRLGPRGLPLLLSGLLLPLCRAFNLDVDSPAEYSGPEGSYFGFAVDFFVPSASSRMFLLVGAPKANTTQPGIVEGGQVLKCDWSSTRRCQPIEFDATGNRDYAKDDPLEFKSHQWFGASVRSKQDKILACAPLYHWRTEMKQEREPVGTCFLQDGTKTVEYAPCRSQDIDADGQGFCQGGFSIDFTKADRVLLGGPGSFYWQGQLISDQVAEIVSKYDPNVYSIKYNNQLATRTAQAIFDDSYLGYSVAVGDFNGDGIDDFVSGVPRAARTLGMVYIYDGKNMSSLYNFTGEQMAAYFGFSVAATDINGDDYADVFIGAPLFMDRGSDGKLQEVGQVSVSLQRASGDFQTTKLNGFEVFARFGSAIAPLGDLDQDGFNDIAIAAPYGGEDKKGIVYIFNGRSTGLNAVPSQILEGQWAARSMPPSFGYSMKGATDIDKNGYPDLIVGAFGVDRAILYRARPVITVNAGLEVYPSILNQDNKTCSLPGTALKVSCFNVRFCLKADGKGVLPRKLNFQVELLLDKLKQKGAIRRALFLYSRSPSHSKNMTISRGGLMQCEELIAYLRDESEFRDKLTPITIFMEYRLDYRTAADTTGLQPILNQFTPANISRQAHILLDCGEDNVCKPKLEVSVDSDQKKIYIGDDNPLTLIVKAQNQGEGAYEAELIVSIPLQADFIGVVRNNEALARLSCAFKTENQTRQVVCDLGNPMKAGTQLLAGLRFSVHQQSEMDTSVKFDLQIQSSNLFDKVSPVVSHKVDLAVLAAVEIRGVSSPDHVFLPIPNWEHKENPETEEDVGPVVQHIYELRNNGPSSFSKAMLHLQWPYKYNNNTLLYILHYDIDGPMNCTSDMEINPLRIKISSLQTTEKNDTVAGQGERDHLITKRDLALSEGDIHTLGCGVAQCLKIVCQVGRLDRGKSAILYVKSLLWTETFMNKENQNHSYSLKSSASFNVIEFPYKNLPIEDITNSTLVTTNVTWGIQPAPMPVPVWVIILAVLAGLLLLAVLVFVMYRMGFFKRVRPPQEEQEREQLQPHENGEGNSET
CD9_E174-CD47^p110-130-Flag displayed on exosomes (Exo^CD9-CD47p110-130-Flag) (P21926, form named): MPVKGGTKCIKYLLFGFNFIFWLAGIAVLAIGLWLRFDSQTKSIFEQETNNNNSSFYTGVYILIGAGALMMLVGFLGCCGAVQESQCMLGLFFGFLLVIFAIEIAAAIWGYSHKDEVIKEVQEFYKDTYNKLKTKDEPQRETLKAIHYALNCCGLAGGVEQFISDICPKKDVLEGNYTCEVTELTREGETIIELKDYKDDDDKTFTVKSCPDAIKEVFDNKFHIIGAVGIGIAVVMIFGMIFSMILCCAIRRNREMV
CD9_E174-HA-RGD displayed on exosomes (Exo^CD9_E174-HA-RGD) (P21926, form named): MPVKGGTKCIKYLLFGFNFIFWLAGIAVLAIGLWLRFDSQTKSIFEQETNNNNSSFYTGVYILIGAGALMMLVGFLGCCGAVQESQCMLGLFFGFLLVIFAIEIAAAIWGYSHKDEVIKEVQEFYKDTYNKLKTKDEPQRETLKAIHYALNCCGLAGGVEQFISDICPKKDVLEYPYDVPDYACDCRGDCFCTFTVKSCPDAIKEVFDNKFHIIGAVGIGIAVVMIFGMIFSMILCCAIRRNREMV

| binding [1] | binding (integrin αvβ3 protein [2]) | binding (integrin αvβ3 protein [3]) | Substance |
| --- | --- | --- | --- |
| binds |  |  | CD9_E174-CD47^p110-130-Flag displayed on exosomes (Exo^CD9-CD47p110-130-Flag) (from UniProt P21926 1-174; P21926 175-228) |
|  | binds |  | CD9_E174-HA-RGD displayed on exosomes (Exo^CD9_E174-HA-RGD) (from UniProt P21926 1-174; P21926 175-228) |
| binds |  | binds | Exo^Smart (exosome co-displaying CD9-HA-RGD and CD9-CD47^p110-130-Flag) (from UniProt P21926 1-174; P21926 175-228; P21926 1-174; P21926 175-228) |

Reference: patent publication US20240398974A1
